These are yes or no findings as the source states them, for the method shown. For some assays here: Binding seen in cells or lysates may run through a third protein. Some entries that bind do so weakly or less than the wild type.

Sequences of proteins named here, by UniProt entry; tags and fusion partners are left off. Residues count along the entry.
UniProt Q8ZPP9, residues 22-79: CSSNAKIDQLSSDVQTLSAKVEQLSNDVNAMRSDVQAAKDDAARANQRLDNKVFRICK

The target of assay [1] is LppB from Salmonella enterica serovar Typhimurium LT2 (S. Typhimurium LT2) (UniProt Q8ZPP9). Kind of assay: non-reducing SDS-PAGE and Western blot.
The target is the same in assay [2]. Kind of assay: reducing SDS-PAGE and Western blot.
The target is the same in assay [3]. Kind of assay: cross-linking.
Assay [4] deals with T1, Lpp (Braun's lipoprotein) from Escherichia coli (E. coli (endogenous in DH300)) (UniProt P69776).
T1 sequence (chain, tri-acylated N-terminal cysteine): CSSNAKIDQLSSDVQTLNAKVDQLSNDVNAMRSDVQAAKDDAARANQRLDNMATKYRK
In words: cross-linking.

As to “LppB from Salmonella enterica serovar Typhimurium LT2 (from UniProt Q8ZPP9 22-79)”, the binding result in assay [1] is reported as “binds”; in assay [2] it was “no binding (condition: with 30 mM DTT)”; in assay [3] it was “binds”; in assay [4] it was “binds”.

B1: Lpp (Braun's lipoprotein) from Escherichia coli (protein, UniProt P69776 21-78)
chain: T1 sequence (chain, tri-acylated N-terminal cysteine)
modifications: tri-acylated N-terminal cysteine
B1: in assay [4], the binding entry is on record as “binds”.

The values are drawn from article doi:10.1101/2025.11.13.688167.
